Data as given in publication doi:10.1101/2023.01.25.525455.

The chains behind the UniProt entries cited, without tags or fusion partners. Residues count along the entry.
UniProt Q8N668: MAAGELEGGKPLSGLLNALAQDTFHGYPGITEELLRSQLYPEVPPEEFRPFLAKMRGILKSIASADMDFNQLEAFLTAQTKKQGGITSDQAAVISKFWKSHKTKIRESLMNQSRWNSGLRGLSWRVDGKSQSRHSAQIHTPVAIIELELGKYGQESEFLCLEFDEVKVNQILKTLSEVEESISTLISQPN
UniProt Q86X83: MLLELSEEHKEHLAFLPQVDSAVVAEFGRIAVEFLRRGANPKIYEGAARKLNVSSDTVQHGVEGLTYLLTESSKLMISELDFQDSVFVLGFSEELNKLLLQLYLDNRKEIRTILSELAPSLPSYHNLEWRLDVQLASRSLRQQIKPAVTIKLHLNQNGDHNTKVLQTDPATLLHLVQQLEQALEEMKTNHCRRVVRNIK
UniProt Q9Y6G5, residues 12-202: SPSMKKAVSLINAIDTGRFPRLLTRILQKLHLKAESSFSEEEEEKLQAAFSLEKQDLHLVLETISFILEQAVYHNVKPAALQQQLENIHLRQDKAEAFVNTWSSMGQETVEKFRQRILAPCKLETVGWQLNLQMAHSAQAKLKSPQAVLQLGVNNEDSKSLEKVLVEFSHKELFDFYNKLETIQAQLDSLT
UniProt Q9H0A8: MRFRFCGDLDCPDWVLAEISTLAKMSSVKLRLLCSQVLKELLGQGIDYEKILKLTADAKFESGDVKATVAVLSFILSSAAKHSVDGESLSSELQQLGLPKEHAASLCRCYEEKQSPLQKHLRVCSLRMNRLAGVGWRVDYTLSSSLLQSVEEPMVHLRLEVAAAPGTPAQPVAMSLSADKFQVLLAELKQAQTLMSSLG
UniProt Q7Z4G1: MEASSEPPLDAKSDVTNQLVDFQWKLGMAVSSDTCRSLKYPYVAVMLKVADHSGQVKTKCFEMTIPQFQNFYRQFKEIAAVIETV
UniProt Q86VX2: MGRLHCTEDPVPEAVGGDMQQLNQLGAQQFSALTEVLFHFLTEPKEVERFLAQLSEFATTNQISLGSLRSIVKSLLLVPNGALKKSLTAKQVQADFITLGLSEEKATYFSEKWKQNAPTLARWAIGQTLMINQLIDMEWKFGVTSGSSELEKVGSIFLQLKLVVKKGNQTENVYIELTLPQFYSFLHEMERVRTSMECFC
UniProt Q9NX08: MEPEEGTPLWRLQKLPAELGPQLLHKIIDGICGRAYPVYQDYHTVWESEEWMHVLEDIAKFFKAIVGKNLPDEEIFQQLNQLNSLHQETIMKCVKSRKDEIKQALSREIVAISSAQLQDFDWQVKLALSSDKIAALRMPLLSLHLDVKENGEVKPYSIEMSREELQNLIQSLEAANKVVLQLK

What was measured:
Assay in all cases: affinity purification with mass spectrometry
[1] = target: COMMD1-His (human) (UniProt Q8N668)
[2] = target: COMMD2-His (human) (UniProt Q86X83)
[3] = target: COMMD10-His (human) (UniProt Q9Y6G5)

binding [1] | binding [2] | binding [3] | Substance
binds | binds |  | COMMD4 (E. coli co-expression) (from UniProt Q9H0A8 1-199)
binds |  |  | COMMD6 (E. coli co-expression) (from UniProt Q7Z4G1 1-85)
 |  | binds | COMMD7 (E. coli co-expression) (from UniProt Q86VX2 1-200)
binds | binds |  | COMMD8 (E. coli co-expression) (from UniProt Q9NX08 1-183)

These are yes or no findings as the source states them, for the method shown. Binding seen in cells or lysates may run through a third protein. A yes stands for co-enrichment or nearness to the bait. Other partners may have been found.
